Results taken from patent US20230242871A1, “GENERATION OF PRIMORDIAL GERM CELLS AND METHODS OF USING THE SAME” (The Board of Trustees of the Leland Stanfor Junior …, priority 2020, published 2023).

How the values were obtained:
Experiment in all cases: High-throughput cell-surface marker screening (LEGENDScreen), %PE+
Format in all cases: cell-based, human
Conditions in all cases: percentage of cells bound to the PE-conjugated antibody (LEGENDScreen)
D3.5 SOX17-GFP+ PGCs = tested on: D3.5 SOX17-GFP+ PGCs
D3.5 SOX17-GFP- non-PGCs = tested on: D3.5 SOX17-GFP- non-PGCs
[1] = tested on: undifferentiated hPSC (D0)

Molecule	% PE+ in PGCs (D3.5 SOX17-GFP+ PGCs)	% PE+ in non-PGCs (D3.5 SOX17-GFP- non-PGCs)	% PE+ in H1 UD [1]
CD92 (protein, UniProt Q8WWI5 2-657, looked up) Choline transporter-like …: GCCSSASSAAQSSKREWKPLEDRSCTDIPWLLLFILFCIGMGFICGFSIATGAAARLVSGYDSYGNICGQKNTKLEAIPNSGMDHTQRKYVFFLDPCNLDLINRKIKSVALCVAACPRQELKTLSDVQKFAEINGSALCSYNLKPSEYTTSPKSSVLCPKLPVPASAPIPFFHRCAPVNISCYAKFAEALITFVSDNSVLHRLISGVMTSKEIILGLCLLSLVLSMILMVIIRYISRVLVWILTILVILGSLGGTGVLWWLYAKQRRSPKETVTPEQLQIAEDNLRALLIYAISATVFTVILFLIMLVMRKRVALTIALFHVAGKVFIHLPLLVFQPFWTFFALVLFWVYWIMTLLFLGTTGSPVQNEQGFVEFKISGPLQYMWWYHVVGLIWISEFILACQQMTVAGAVVTYYFTRDKRNLPFTPILASVNRLIRYHLGTVAKGSFIITLVKIPRMILMYIHSQLKGKENACARCVLKSCICCLWCLEKCLNYLNQNAYTATAINSTNFCTSAKDAFVILVENALRVATINTVGDFMLFLGKVLIVCSTGLAGIMLLNYQQDYTVWVLPLIIVCLFAFLVAHCFLSIYEMVVDVLFLCFAIDTKYNDGSPGREFYMDKVLMEFVENSRKAMKEAGKGGVADSRELKPMASGASSA	0.8537%	0.8663%	95.5%
Delta Opioid Receptor (protein, UniProt P41143 1-372, looked up) Delta-type opioid receptor: MEPAPSAGAELQPPLFANASDAYPSACPSAGANASGPPGARSASSLALAIAITALYSAVCAVGLLGNVLVMFGIVRYTKMKTATNIYIFNLALADALATSTLPFQSAKYLMETWPFGELLCKAVLSIDYYNMFTSIFTLTMMSVDRYIAVCHPVKALDFRTPAKAKLINICIWVLASGVGVPIMVMAVTRPRDGAVVCMLQFPSPSWYWDTVTKICVFLFAFVVPILIITVCYGLMLLRLRSVRLLSGSKEKDRSLRRITRMVLVVVGAFVVCWAPIHIFVIVWTLVDIDRRDPLVVAALHLCIALGYANSSLNPVLYAFLDENFKRCFRQLCRKPCGRPDPSSFSRAREATARERVTACTPSDGPGGGAAA	0.007076%	0.005966%	0.21%
MRGX2 (protein, UniProt Q96LB1 1-330, looked up) Mas-related G-protein coupled …: MDPTTPAWGTESTTVNGNDQALLLLCGKETLIPVFLILFIALVGLVGNGFVLWLLGFRMRRNAFSVYVLSLAGADFLFLCFQIINCLVYLSNFFCSISINFPSFFTTVMTCAYLAGLSMLSTVSTERCLSVLWPIWYRCRRPRHLSAVVCVLLWALSLLLSILEGKFCGFLFSDGDSGWCQTFDFITAAWLIFLFMVLCGSSLALLVRILCGSRGLPLTRLYLTILLTVLVFLLCGLPFGIQWFLILWIWKDSDVLFCHIHPVSVVLSSLNSSANPIIYFFVGSFRKQWRLQQPILKLALQRALQDIAEVDHSEGCFRQGTPEMSRSSLV	0%	0.0008284%	0.2%
CD255 (protein, UniProt O43508 94-249, looked up) Tumor necrosis factor ligand …: SAPKGRKTRARRAIAAHYEVHPRPGQDGAQAGVDGTVSGWEEARINSSSPLRYNRQIGEFIVTRAGLYYLYCQVHFDEGKAVYLKLDLLVDGVLALRCLEEFSATAASSLGPQLRLCQVSGLLALRPGSSLRIRTLPWAHLKAAPFLTYFGLFQVH	0.003226%	0.006777%	0.99%
CD201 (protein, UniProt Q9UNN8 18-238, looked up) Endothelial protein C receptor: SQDASDGLQRLHMLQISYFRDPYHVWYQGNASLGGHLTHVLEGPDTNTTIIQLQPLQEPESWARTQSGLQSYLLQFHGLVRLVHQERTLAFPLTIRCFLGCELPPEGSRAHVFFEVAVNGSSFVSFRPERALWQADTQVTSGVVTFTLQQLNAYNRTRYELREFLEDTCVQYVQKHISAENTKGSQTSRSYTSLVLGVLVGSFIIAGVAVGIFLCTGGRRC	0.113%	0.4119%	96.5%
CD131 (protein, UniProt P32927 17-897, looked up) Cytokine receptor common …: WERSLAGAEETIPLQTLRCYNDYTSHITCRWADTQDAQRLVNVTLIRRVNEDLLEPVSCDLSDDMPWSACPHPRCVPRRCVIPCQSFVVTDVDYFSFQPDRPLGTRLTVTLTQHVQPPEPRDLQISTDQDHFLLTWSVALGSPQSHWLSPGDLEFEVVYKRLQDSWEDAAILLSNTSQATLGPEHLMPSSTYVARVRTRLAPGSRLSGRPSKWSPEVCWDSQPGDEAQPQNLECFFDGAAVLSCSWEVRKEVASSVSFGLFYKPSPDAGEEECSPVLREGLGSLHTRHHCQIPVPDPATHGQYIVSVQPRRAEKHIKSSVNIQMAPPSLNVTKDGDSYSLRWETMKMRYEHIDHTFEIQYRKDTATWKDSKTETLQNAHSMALPALEPSTRYWARVRVRTSRTGYNGIWSEWSEARSWDTESVLPMWVLALIVIFLTIAVLLALRFCGIYGYRLRRKWEEKIPNPSKSHLFQNGSAELWPPGSMSAFTSGSPPHQGPWGSRFPELEGVFPVGFGDSEVSPLTIEDPKHVCDPPSGPDTTPAASDLPTEQPPSPQPGPPAASHTPEKQASSFDFNGPYLGPPHSRSLPDILGQPEPPQEGGSQKSPPPGSLEYLCLPAGGQVQLVPLAQAMGPGQAVEVERRPSQGAAGSPSLESGGGPAPPALGPRVGGQDQKDSPVAIPMSSGDTEDPGVASGYVSSADLVFTPNSGASSVSLVPSLGLPSDQTPSLCPGLASGPPGAPGPVKSGFEGYVELPPIEGRSPRSPRNNPVPPEAKSPVLNPGERPADVSPTSPQPEGLLVLQQVGDYCFLPGLGPGPLSLRSKPSSPGPGPEIKNLDQAFQVKKPPGQAVPQVPVIQLFKALKQQDYLSLPPWEVNKPGEVC	0%	0.0001418%	0.16%
CD294 (protein, UniProt Q9Y5Y4 1-395, looked up) Prostaglandin D2 receptor 2: MSANATLKPLCPILEQMSRLQSHSNTSIRYIDHAAVLLHGLASLLGLVENGVILFVVGCRMRQTVVTTWVLHLALSDLLASASLPFFTYFLAVGHSWELGTTFCKLHSSIFFLNMFASGFLLSAISLDRCLQVVRPVWAQNHRTVAAAHKVCLVLWALAVLNTVPYFVFRDTISRLDGRIMCYYNVLLLNPGPDRDATCNSRQVALAVSKFLLAFLVPLAIIASSHAAVSLRLQHRGRRRPGRFVRLVAAVVAAFALCWGPYHVFSLLEARAHANPGLRPLVWRGLPFVTSLAFFNSVANPVLYVLTCPDMLRKLRRSLRTVLESVLVDDSELGGAGSSRRRRTSSTARSASPLALCSRPEEPRGPARLLGWLLGSCAASPQTGPLNRALSSTSS	0.4746%	0.02205%	0.3%
XCR1 (protein, UniProt P46094 1-333, looked up) Chemokine XC receptor 1: MESSGNPESTTFFYYDLQSQPCENQAWVFATLATTVLYCLVFLLSLVGNSLVLWVLVKYESLESLTNIFILNLCLSDLVFACLLPVWISPYHWGWVLGDFLCKLLNMIFSISLYSSIFFLTIMTIHRYLSVVSPLSTLRVPTLRCRVLVTMAVWVASILSSILDTIFHKVLSSGCDYSELTWYLTSVYQHNLFFLLSLGIILFCYVEILRTLFRSRSKRRHRTVKLIFAIVVAYFLSWGPYNFTLFLQTLFRTQIIRSCEAKQQLEYALLICRNLAFSHCCFNPVLYVFVGVKFRTHLKHVLRQFWFCRLQAPSPASIPHSPGAFAYEGASFY	0%	0.0005968%	0.3%
CD134 (protein, UniProt P43489 29-277, looked up) Tumor necrosis factor …: LHCVGDTYPSNDRCCHECRPGNGMVSRCSRSQNTVCRPCGPGFYNDVVSSKPCKPCTWCNLRSGSERKQLCTATQDTVCRCRAGTQPLDSYKPGVDCAPCPPGHFSPGDNQACKPWTNCTLAGKHTLQPASNSSDAICEDRDPPATQPQETQGPPARPITVQPTEAWPRTSQGPSTRPVEVPGGRAVAAILGLGLVLGLLGPLAILLALYLLRRDQRLPPDAHKPPGGGSFRTPIQEEQADAHSTLAKI	0%	0.0001114%	0.35%
